The results in this text go back to paper PMC10127613 (mBio, 2023).

Tags and fusion partners may be left off the protein sequences shown.

The target in series [1] is T1, Clr (Sinorhizobium meliloti) (UniProt Q92SD2).
T1 sequence (looked up): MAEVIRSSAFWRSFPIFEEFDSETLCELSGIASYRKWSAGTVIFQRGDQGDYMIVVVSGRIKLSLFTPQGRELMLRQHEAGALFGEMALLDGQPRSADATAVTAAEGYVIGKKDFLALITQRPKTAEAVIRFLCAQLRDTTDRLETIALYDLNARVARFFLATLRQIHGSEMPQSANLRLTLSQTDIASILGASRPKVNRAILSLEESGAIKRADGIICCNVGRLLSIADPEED
The series is described as follows: ITC. The note with it: 1 mM cGMP; ITC: 20 mM HEPES, 300 mM NaCl, 20 mM MgCl2, pH 7.0, 25 C; recombinant protein; residues 1-234; protein details: C-terminal His6 (pET36b, NdeI/XhoI); letters put together from the description; only the site is given.

Series [2] has as its target T1, Clr (Sinorhizobium meliloti). The series can be described thus: EMSA. The note with it: 1 mM cAMP, EMSA: 2 mM HEPES pH 7.0, 30 mM NaCl, 50 mM KCl, 850 ng salmon sperm DNA, 1 ug BSA, 20 ng Cy3-DNA, 3 ug Clr in 10 uL, room temperature, recombinant protein, residues 1-234, protein details: C-terminal His6 (pET36b, NdeI/XhoI), label: 5'-Cy3 on reverse strand. Background: A gel shift assay detects complexes by their altered migration in electrophoresis.

In the case of “CTAGGTAACATTACTCGCG / GCGAGTAATGTTAC / CTAGGTAACATTACTCGCG / GCGAGTAATGTTAC”, the binding result in series [1] was “binds”.

Turning to “AGCGGATAACAATTTCACACAGGAAACAGCATATGACCATGATTACGCCAAGCTCGAAATTAACCCTCACTAAAGGGAACAAAAGCTGGAGCTCTTAAGCTTGACCAACCTTTTCCCAGAGGTAATAAGAACCTGCCGTGTTGGGATGGTACGGAAGTACATCGGTGCAGATGCTCTCCGTGCGTGGACTTGAGGACAGGCCAAAGACTTACAGCTCCGGCGCGAAACGTCGCGTCGACCGGGCGTGAGCACCCAGTGGTGCGCGGTTGCCTGGGCTGAGGCGACGCCAAGGTTGGTCCCTGTTACTTCCGGAACTGCCGCAGTGGCTTACTCCGGGTATTCAGTAACAACGGGATTGCGCGTGCGGGCGGAACGAGGACGGCGCGCGCGGGACGAGCCTTTGCTGCCACATCCCGAACAACGAGGCGGTGACTCTGTCGCAGCCGCCGCATTGGCGAGTGTCCACCGAAAGGCCGGCACTCAGACCAAGAGGGAAGCACCATGTCTAAGACGTCCTTCAACATCAATCCGTCGGCCATTCTGACCACGGCGCTAGGCACAGCCTTCTTGAGCTGCGCGGCACAGGTGGCCGGGGCAATCCACCGGCGCCGGCAAAGCGGTCGTGCACGCGGGTGCACTCTGCAGGAAATGCCGGATTACATCCTCAAGGACATCGGCGTGACGCGCTTCGAAATTGAATACCTCGTCAAATCTGGACGAGCCTGCAGATGGCGCCAGAGCGAGTGAAGCGGCCGAATGCCACCGTCTCTGTCAGATCGAACCATTGAGAATGACAATGAGAGTGACCATGAAAATGCACCTTCTCTCCAGCGCTCTAGACTGCAGATGGTGAGCAAGGGCGAGGAGCTGTTCA (double strand) [SMb20495]”, the binding result in series [2] is given as “binds”.
